Measured values: article PMC11327140, “Selective inhibitor of sodium-calcium exchanger, SEA0400, affects NMDA receptor currents and abolishes their calcium-dependent block by tricyclic antidepressants” (Frontiers in Pharmacology, 2024)

Chains of the proteins cited; added tags and fusions are not shown. Residues count along the entry.
UniProt Q00959, 23-1464 limits assumed: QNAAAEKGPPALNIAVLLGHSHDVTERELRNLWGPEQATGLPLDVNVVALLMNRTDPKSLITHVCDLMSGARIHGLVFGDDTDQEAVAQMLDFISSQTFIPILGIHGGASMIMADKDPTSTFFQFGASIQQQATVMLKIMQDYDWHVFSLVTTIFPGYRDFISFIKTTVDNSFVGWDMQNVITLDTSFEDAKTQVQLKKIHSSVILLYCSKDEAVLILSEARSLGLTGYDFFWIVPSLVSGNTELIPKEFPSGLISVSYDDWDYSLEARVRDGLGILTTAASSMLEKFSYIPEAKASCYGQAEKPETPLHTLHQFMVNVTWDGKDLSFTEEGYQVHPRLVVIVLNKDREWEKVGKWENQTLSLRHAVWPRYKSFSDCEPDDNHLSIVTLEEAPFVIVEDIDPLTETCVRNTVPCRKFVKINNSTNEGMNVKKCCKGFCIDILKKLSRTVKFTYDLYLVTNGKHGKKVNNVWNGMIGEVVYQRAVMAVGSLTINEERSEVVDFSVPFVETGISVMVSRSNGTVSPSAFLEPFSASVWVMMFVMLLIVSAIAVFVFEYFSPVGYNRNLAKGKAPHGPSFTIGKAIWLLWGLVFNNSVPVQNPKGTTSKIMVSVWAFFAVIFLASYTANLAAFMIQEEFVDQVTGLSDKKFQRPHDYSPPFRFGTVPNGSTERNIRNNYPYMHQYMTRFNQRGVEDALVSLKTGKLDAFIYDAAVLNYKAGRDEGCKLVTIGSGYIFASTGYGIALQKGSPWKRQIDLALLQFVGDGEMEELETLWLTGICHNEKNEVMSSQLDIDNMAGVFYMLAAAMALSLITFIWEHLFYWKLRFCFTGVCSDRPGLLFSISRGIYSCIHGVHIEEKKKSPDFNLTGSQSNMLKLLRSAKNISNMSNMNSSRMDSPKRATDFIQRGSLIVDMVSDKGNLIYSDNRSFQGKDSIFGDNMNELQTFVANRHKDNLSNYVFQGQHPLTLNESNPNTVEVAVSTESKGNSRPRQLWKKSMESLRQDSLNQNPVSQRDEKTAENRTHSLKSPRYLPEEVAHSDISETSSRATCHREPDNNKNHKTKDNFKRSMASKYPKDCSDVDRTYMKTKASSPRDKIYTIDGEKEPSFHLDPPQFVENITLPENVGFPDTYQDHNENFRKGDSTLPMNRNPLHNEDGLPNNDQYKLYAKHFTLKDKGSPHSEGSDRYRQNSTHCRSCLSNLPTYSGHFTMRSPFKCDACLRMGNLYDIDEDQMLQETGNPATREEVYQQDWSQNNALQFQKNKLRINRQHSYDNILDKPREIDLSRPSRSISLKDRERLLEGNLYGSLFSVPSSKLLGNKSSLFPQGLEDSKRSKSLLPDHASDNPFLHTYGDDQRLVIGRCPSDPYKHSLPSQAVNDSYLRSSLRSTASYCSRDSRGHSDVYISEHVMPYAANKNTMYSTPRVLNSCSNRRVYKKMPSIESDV
UniProt Q00960, 27-1482 limits assumed: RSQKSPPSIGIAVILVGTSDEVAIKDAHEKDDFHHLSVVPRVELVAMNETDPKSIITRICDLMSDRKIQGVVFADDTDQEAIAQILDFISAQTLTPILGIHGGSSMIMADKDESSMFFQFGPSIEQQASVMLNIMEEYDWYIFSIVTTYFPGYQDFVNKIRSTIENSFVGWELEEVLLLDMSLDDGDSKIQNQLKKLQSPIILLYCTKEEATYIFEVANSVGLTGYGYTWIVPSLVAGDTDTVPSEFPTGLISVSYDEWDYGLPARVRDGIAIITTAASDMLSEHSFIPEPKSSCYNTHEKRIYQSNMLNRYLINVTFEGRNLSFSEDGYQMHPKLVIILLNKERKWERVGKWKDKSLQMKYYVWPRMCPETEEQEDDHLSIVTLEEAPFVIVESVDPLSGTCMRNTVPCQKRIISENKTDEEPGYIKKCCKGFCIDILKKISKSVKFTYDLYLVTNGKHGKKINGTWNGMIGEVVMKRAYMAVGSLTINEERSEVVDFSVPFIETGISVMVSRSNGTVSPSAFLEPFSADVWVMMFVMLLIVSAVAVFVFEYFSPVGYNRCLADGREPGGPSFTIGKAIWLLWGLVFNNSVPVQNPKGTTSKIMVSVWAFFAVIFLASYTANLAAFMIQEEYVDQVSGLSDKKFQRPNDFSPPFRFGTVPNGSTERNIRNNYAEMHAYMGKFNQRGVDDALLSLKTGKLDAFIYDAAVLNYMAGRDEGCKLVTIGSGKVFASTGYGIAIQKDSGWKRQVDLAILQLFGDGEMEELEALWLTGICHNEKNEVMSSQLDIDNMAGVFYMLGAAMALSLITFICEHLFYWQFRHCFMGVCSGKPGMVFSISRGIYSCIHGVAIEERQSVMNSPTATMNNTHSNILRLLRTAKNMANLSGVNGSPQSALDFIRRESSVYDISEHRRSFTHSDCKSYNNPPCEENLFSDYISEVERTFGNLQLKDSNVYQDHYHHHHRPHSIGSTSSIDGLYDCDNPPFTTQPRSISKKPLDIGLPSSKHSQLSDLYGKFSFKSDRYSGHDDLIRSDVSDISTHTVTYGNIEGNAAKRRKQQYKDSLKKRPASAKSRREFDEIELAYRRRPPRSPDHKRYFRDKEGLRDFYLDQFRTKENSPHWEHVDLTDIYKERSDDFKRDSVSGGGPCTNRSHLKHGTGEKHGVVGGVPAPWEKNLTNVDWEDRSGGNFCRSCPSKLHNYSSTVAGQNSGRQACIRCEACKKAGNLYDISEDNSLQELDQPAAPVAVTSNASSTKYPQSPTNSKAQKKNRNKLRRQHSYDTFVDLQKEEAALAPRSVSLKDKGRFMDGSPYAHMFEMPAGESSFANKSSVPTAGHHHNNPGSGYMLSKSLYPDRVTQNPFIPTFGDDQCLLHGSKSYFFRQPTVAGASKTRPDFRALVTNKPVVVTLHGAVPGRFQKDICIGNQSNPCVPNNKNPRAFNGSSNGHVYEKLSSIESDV

Biological target: NMDA receptor (NMDAR) currents (Rattus norvegicus, UniProt P35439+Q00959+Q00960)
Experiment: Whole-cell patch-clamp recording of NMDA-activated currents in cortical neurons of primary culture
Assay type: cell-based
Settings: 50 nM SEA0400, 1 mM extracellular Ca2+

## CN(C)CCCN1c2ccccc2CCc2ccc(Cl)cc21 [CLO, clomipramine]
  effect of SEA0400 on IC50 of NMDAR inhibition: had no effect
Listed as clomipramine
  effect of SEA0400 on IC50 of NMDAR inhibition: did not change
